Results from patent US20180298101A1.
These are yes or no findings as the source states them, for the method shown. Binding seen in cells or lysates may run through a third protein. Some binding calls cover weakened binding; strength is not graded here. Sequences can lack the tags named with a protein.

Protein sequences, listed by entry. Tags and fused reporters are not part of them.
UniProt P52332: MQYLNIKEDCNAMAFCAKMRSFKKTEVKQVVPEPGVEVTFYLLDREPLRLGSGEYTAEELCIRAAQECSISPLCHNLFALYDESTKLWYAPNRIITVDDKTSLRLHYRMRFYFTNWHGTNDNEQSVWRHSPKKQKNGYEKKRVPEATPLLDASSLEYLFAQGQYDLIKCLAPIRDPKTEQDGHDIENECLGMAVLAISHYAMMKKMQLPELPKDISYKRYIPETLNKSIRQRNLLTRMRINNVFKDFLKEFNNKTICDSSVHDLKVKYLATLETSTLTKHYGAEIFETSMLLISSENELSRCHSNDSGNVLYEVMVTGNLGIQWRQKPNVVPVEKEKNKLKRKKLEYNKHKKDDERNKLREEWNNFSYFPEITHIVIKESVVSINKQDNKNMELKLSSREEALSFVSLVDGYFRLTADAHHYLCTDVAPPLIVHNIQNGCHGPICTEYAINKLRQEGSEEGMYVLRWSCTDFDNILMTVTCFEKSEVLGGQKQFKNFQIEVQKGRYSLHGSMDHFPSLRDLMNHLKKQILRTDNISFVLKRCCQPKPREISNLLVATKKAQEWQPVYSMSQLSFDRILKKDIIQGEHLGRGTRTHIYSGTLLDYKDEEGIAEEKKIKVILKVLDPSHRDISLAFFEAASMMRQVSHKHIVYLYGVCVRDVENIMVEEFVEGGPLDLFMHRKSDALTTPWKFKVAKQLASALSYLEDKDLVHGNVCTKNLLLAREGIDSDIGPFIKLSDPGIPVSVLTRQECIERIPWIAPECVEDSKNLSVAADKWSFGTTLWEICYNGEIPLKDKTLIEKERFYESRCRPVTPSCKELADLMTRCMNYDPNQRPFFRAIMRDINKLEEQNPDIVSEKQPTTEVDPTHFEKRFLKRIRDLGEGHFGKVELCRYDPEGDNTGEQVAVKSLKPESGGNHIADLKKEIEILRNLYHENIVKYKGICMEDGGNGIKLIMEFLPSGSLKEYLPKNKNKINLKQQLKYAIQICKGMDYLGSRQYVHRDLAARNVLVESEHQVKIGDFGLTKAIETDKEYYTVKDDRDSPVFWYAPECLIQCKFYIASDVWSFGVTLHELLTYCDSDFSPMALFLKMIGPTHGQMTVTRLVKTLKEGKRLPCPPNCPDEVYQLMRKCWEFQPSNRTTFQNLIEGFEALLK

Key:
[1] = target: Flag-tagged mouse JAK1 (full-length) (mouse) (UniProt P52332); assay: co-immunoprecipitation from 293T cells
[2] = target: Flag-tagged mouse JAK1 (full-length) (mouse) (UniProt P52332); assay: co-immunoprecipitation from 293T cells with anti-CIS or anti-JAK1 antibodies, anti-FLAG blot

binding [1]: binds
binding [2]: binds
B1: Flag-tagged mouse CIS (protein, not shown: small tags and cut ends)
chain: MVLCVQGSCPLLAVEQIGRRPLWAQSLELPGPAMQPLPTGAFPEEVTEETPVQAENEPKVLDPEGDLLCIAKTFSYLRESGWYWGSITASEARQHLQKMPEGTFLVRDSTHPSYLFTLSVKTTRGPTNVRIEYADSSFRLDSNCLSRPRILAFPDVVSLVQHYVASCAADTRSDSPDPAPTPALPMSKQDAPSDSVLPIPVATAVHLKLVQPFVRRSSARSLQHLCRLVINRLVADVDCLPLPRRMADYLRQYPFQL
